No constants are given. Whether binding was seen depends on the method and setting. In cells and extracts the contact can be indirect. Some binding calls cover weakened binding; strength is not graded here. Tags and fused reporters may be left off the sequences shown.
Tests used:
GFP-Vps3 = biological target: T1, GFP-Vps3 (UniProt Q8WUH2); test: co-IP; IP of GFP-tagged subunits from HeLa cells co-expressing HA-VIPAS39 alone (left panel) or HA-VIPAS39 and HA-Vps33B (right panel), blot for HA; lysis buffer 40 mM TRIS pH 7.4, 100 mM NaCl, 0.1% TX-100, 5 mM EDTA; also read after prolonged exposure of the blot
T1 sequence: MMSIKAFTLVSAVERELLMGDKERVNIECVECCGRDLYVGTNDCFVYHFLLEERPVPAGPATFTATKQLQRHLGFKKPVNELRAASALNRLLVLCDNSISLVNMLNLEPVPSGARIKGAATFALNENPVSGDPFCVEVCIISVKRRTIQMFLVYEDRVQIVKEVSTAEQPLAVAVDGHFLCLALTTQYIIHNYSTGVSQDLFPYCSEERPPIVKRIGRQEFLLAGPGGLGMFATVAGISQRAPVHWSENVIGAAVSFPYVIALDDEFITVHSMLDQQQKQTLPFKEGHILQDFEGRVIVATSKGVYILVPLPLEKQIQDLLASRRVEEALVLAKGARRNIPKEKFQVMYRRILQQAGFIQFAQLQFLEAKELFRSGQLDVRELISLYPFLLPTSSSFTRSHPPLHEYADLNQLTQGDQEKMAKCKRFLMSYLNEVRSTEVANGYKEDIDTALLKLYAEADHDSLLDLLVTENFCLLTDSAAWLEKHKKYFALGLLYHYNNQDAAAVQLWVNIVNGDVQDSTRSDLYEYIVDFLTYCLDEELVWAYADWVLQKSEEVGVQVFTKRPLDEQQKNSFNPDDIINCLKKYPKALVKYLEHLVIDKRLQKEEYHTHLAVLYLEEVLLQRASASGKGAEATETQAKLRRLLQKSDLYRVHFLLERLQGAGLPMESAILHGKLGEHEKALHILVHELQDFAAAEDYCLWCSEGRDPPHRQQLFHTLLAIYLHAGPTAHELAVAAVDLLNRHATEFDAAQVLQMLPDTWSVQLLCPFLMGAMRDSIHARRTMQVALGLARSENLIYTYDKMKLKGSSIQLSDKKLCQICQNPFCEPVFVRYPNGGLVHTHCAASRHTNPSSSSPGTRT

GFP-Vps33B = biological target: T2, GFP-Vps33B (UniProt Q9H267); test: as above
T2 sequence: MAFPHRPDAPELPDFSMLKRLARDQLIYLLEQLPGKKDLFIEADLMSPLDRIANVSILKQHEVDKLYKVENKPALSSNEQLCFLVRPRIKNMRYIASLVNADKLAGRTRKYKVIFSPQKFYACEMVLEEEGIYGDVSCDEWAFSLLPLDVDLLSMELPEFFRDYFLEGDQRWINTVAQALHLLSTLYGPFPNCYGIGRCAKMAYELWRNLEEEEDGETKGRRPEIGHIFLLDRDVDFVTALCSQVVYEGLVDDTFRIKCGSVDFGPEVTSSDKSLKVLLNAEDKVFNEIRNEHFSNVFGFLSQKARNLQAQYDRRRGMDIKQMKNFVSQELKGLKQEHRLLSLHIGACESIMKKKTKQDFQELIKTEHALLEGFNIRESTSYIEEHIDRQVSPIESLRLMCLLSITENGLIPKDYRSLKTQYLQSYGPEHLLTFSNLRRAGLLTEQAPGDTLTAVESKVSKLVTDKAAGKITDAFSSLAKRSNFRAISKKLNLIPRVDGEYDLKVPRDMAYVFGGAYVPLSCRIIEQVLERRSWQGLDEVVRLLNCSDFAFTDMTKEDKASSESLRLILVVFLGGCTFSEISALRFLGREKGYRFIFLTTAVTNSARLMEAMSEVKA

binding (GFP-Vps3): binds weakly | binding (GFP-Vps33B): binds
B1: HA-VIPAS39 (protein, UniProt Q9H9C1 1-493)
chain: MNRTKGDEEEYWNSSKFKAFTFDDEDDELSQLKESKRAVNSLRDFVDDDDDDDLERVSWSGEPVGSISWSIRETAGNSGSTHEGREQLKSRNSFSSYAQLPKPTSTYSLSSFFRGRTRPGSFQSLSDALSDTPAKSYAPELGRPKGEYRDYSNDWSPSDTVRRLRKGKVCSLERFRSLQDKLQLLEEAVSMHDGNVITAVLIFLKRTLSKEILFRELEVRQVALRHLIHFLKEIGDQKLLLDLFRFLDRTEELALSHYREHLNIQDPDKRKEFLKTCVGLPFSAEDSAHIQDHYTLLERQIIIEANDRHLESAGQTEIFRKHPRKASILNMPLVTTLFYSCFYHYTEAEGTFSSPVNLKKTFKIPDKQYVLTALAARAKLRAWNDVDALFTTKNWLGYTKKRAPIGFHRVVEILHKNNAPVQILQEYVNLVEDVDTKLNLATKFKCHDVVIDTYRDLKDRQQLLAYRSKVDKGSAEEEKIDALLSSSQIRWKN

From article PMC5824891
